Results are given in words; binding and its absence hold for the method and conditions named. In cells and extracts the contact can be indirect. Some binding calls cover weakened binding; strength is not graded here. Sequences can lack the tags named with a protein.
Legend:
[1] = molecular target: T1, EGFP–Rab20 (mouse) (UniProt P35295); assay: co-IP; GFP-Trap beads with lysate of RAW264.7 macrophages stably expressing EGFP-Rab20; lysis buffer (20 mM Tris-HCl pH 7.5, 150 mM NaCl, 0.5% NP-40) with 1 mM GTPγS; 2 h at 4°C; blotted for GFP and Rabex-5
T1 sequence: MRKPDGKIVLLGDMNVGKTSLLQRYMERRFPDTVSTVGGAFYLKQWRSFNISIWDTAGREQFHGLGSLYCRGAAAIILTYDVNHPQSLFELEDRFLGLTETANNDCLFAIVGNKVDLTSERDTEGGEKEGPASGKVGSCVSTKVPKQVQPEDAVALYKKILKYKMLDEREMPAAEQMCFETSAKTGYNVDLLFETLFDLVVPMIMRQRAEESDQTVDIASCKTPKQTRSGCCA

Amino acid sequences for entries named in this document (tags omitted).
UniProt Q9JM13: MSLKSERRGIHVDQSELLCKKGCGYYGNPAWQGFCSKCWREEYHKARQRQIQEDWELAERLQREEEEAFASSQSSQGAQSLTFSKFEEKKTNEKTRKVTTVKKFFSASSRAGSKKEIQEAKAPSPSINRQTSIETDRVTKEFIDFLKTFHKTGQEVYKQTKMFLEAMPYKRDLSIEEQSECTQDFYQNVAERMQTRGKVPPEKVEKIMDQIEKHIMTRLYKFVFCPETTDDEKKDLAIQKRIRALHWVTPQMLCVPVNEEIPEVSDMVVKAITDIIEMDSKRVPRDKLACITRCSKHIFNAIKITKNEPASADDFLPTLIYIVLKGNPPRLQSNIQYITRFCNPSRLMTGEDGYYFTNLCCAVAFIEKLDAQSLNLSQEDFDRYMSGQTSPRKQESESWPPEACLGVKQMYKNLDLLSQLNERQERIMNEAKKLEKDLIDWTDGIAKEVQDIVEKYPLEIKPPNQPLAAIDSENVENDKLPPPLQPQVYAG

[2] = molecular target: T2, GST–Rab20 (mouse) (UniProt P35295); assay: pull-down; GST-Rab20 immobilised on glutathione-agarose beads and preloaded with 2 mM GTPγS; incubated with RAW264.7 lysate (2 mM GTPγS) for 2 h at 4°C; Rabex-5 detected by western blotting; only the target purified
T2 sequence: T1 sequence

Rabex-5 (from UniProt Q9JM13 1-491)
binding [1]: binds
binding [2]: binds
